Experiment [1] concerns the target proline-arginine dipeptide repeat protein PR50, yeast two-hybrid fusion. Briefly: two-hybrid; Matchmaker GAL4 library screen: PR50 in pGBKT7 (AH109) as bait, human brain cDNA library in pGADT7 (Y187) as prey, mating; blue diploids on SD/-Ade/-His/-Leu/-Trp/X-alpha-gal.
For experiment [2] the target is unchanged. The experiment is described as follows: two-hybrid; Matchmaker GAL4 assay of pairs: PR50 in pGBKT7 (AH109), full-length NOVA1 or its fragments in pGADT7 (Y187); also with the vectors exchanged.

No constants are given. Whether binding was seen depends on the method and setting. Binding calls can cover weak binding; strength is not graded here. For some of these results: Where a sequence is shown, tags or fusion partners need not be part of it.

B1: NOVA1 positive clone 42-2 (residues 144-507) from the human brain cDNA library (domain or fragment, UniProt P51513-4 144-507)
chain: PDRIKQTLPSSPTTTKSSPSDPMTTSRANQVKIIVPNSTAGLIIGKGGATVKAVMEQSGAWVQLSQKPDGINLQERVVTVSGEPEQNRKAVELIIQKIQEDPQSGSCLNISYANVTGPVANSNPTGSPYANTAEVLPTAAAAAGLLGHANLAGVAAFPAVLSGFTGNDLVAITSALNTLASYGYNLNTLGLGLSQAAATGALAAAAASANPAAAAANLLATYASEASASGSTAGGTAGTFALGSLAAATAATNGYFGAASPLAASAILGTEKSTDGSKDVVEIAVPENLVGAILGKGGKTLVEYQELTGARIQISKKGEFVPGTRNRKVTITGTPAATQAAQYLITQRITYEQGVRAANPQKVG
For B1, the binding result in experiment [1] is “binds”.

B2: NOVA1 fragment N3 (amino acids 341-507), yeast two-hybrid fusion (domain or fragment, UniProt P51513-4 341-507)
chain: ATGALAAAAASANPAAAAANLLATYASEASASGSTAGGTAGTFALGSLAAATAATNGYFGAASPLAASAILGTEKSTDGSKDVVEIAVPENLVGAILGKGGKTLVEYQELTGARIQISKKGEFVPGTRNRKVTITGTPAATQAAQYLITQRITYEQGVRAANPQKVG
B2: the binding entry in experiment [2] is “binds”.

B3: NOVA1 fragment N2 (amino acids 170-340), yeast two-hybrid fusion (domain or fragment, UniProt P51513-4 170-340)
chain: RANQVKIIVPNSTAGLIIGKGGATVKAVMEQSGAWVQLSQKPDGINLQERVVTVSGEPEQNRKAVELIIQKIQEDPQSGSCLNISYANVTGPVANSNPTGSPYANTAEVLPTAAAAAGLLGHANLAGVAAFPAVLSGFTGNDLVAITSALNTLASYGYNLNTLGLGLSQAA
Turning to B3, the binding result in experiment [2] is given as “no binding”.

B4: NOVA1 fragment N1 (amino acids 1-169), yeast two-hybrid fusion (domain or fragment, UniProt P51513-4 1-169)
chain: MMAAAPIQQNGTHTGVPIDLDPPDSRKRPLEAPPEAGSTKRTNTGEDGQYFLKVLIPSYAAGSIIGKGGQTIVQLQKETGATIKLSKSKDFYPGTTERVCLIQGTVEALNAVHGFIAEKIREMPQNVAKTEPVSILQPQTTVNPDRIKQTLPSSPTTTKSSPSDPMTTS
Consider B4, for which, in experiment [2], the binding entry is “no binding”.

(Values after PMC10605128.)
